Some of the results follow. Further columns of the screen follow, without active or inactive calls. Most of these compounds were active or inconclusive in the main read-out, so they are no random draw. The note in brackets gives the kind of curve behind each potency; many fits are weak.
Test: qHTS Assay for Lipid Storage Modulators in Drosophila S3 Cells;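 for cell number change: cells counted by Cell Tracker Red CMTPX staining in the red channel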
Settings: BODIPY lipid droplet fluorescence, 18-24 h; for cell number change: measured here: cell count max response, cells fed with added oleic acid
Procedure, shortened: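 Drosophila S3 cells got compounds at several concentrations plus oleic acid (400 uM solution). Laser-scanning cytometry with 488 nm excitation read lipid droplets at 500-530 nm and cells at 575-640 nm. Percent activity was relative to 20 uM Triacsin C.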

[1] = measured here: cell number channel AC50, cells fed with added oleic acid
[2] = measured here: lipid fluorescence (Fed channel) AC50, cells fed with added oleic acid

Row | Compound | cell number change | AC50 [1] | AC50 [2]
1 | CCOC(=O)Cn1cnc2c(nnn2-c2cccc(Cl)c2)c1=O | 1.39% |  | 
2 | O=c1c2ccccc2ncn1Cc1cccc2ccccc12 | 144% | 29.1 µM [rising, single point] | 23.1 µM [rising, partial curve]
3 | CC1CN(C(=S)NC(=O)c2ccc(Cl)cc2)CC(C)O1 (stereo unspecified) | -0.482% |  | 0.0651 µM [rising, full curve, poor fit]
4 | Cc1cc(C(=O)O[C@H]2[C@H](C)NS(=O)(=O)[C@H]3C[C@@H]4C=C[C@]23O4)cc([N+](=O)[O-])c1 | -32.1% | 3.66 µM [falling, full curve, poor fit] | 0.259 µM [falling, partial curve, poor fit]
5 | CCC(C)(C(=O)NC1CCCCC1)N(CC1CCCO1)C(=O)c1ccccn1 (stereo unspecified) |  | 0.116 µM [falling, full curve, poor fit] | 0.651 µM [falling, partial curve, poor fit]
6 | NC(=O)Cn1c(=O)n(CCC(=O)NCCSCc2ccccc2)c(=O)c2ccccc21 |  | 2.31 µM [rising, single point] | 
7 | CC(=O)OC(C(=O)NCS(=O)(=O)c1ccc(C)cc1)c1cccnc1 (stereo unspecified) | 0.448% |  | 0.58 µM [rising, single point]
8 | Cc1onc(-c2ccccc2)c1C(=O)NC(=S)NNC(=O)c1ccncc1 |  | 0.58 µM [rising, single point] | 0.58 µM [rising, single point]
9 | NC(=O)c1c(NC(=O)CSc2nnc(Cc3ccccc3)n2Cc2ccco2)sc2c1CCC2 | 33.5% | 8.2 µM [rising, partial curve] | 
10 | O=[N+]([O-])c1ccc(Cl)c(/C=N/N2CCN(c3ccccc3)CC2)c1 | -33.9% | 0.731 µM [falling, partial curve, poor fit] | 0.116 µM [falling, partial curve, poor fit]
11 | Cc1nnc(NC(=O)CN2C(=O)NC3(CCCC3)C2=O)s1 | -34.7% |  | 0.82 µM [falling, full curve]
12 | Cc1ccc(C)c(-c2nc3cc(N)ccc3o2)c1 | 220% | 2.06 µM [rising, full curve] | 1.84 µM [rising, full curve]
13 | COCC1OS(=O)(=O)NC(CC(=O)SC(C)(C)C)C1C (stereo unspecified) | 6.15% |  | 
14 | CC(C)NC(=O)C1CC=CCC1C(=O)O (stereo unspecified) | -25.2% | 0.103 µM [falling, full curve, poor fit] | 
15 | CN(C)S(=O)(=O)c1ccc2c(c1)C(CC(=O)O)NC2=O (stereo unspecified) | 1.11% |  | 6.51 µM [rising, single point]

Single entries from the results shown.
CCC(C)(C(=O)NC1CCCCC1)N(CC1CCCO1)C(=O)c1ccccn1 (stereo unspecified) | AC50 [2]: 0.651 µM [falling, partial curve, poor fit]
Cc1cc(C(=O)O[C@H]2[C@H](C)NS(=O)(=O)[C@H]3C[C@@H]4C=C[C@]23O4)cc([N+](=O)[O-])c1 | cell number change: -32.1%

Source: PubChem BioAssay AID2685 (National Center for Advancing Translational Sciences (NCATS), 2010)
